Consider seven compounds from article PMC7067379, “Mapping the S1 and S1’ subsites of cysteine proteases with new dipeptidyl nitrile inhibitors as trypanocidal agents” (PLoS Neglected Tropical Diseases, 2020).

Structures are written as SMILES.

The subject of the series is T. cruzi Tulahuen LacZ strain, intracellular amastigote forms. Nature of the series: In vitro trypanocidal activity on intracellular amastigote forms (Tulahuen strain). It counts as cell-based, Trypanosoma cruzi. Conditions: S1 Table; ratio CC50 / EC50. As to the method: Cells were evaluated in 96-well plates. Cells from the LLCMK2 lineage were plated at a concentration of 5x10^4 cells mL^-1. Trypomastigote forms of the Tulahuen LacZ strain were added at a concentration of 5×10^5 parasites mL^-1 and placed in the incubator at 37°C with 5% CO2 for 24 h. After the incubation period, the trypomastigote forms present were removed by successive washes with PBS, remaining only as intracellular amastigote forms. Compounds were added at different concentrations (1.95 μM to 250 μM serial dilutions) and incubated for 72 h. At the end of this period, the substrate CPRG (chlorophenol red β-D-galactopyranoside, 400 μM in 0.3% Triton X-100, pH 7.4) was added. […] Benznidazole was used as a positive control in the same concentrations as the substances, and DMSO as a negative control. Compounds were solubilized in DMSO. The selectivity index (SI) was calculated using the formula: […]. All statistical analyses were done with the program GraphPad Prism v.5.

On to `CC(C)C[C@@H](C#N)NC(=O)[C@H](Cc1ccccc1)NC(=O)c1cc(C(C)(C)C)nn1C` [Compound 52, 3-(tert-Butyl)-N-((S)-1-(((S)-1-cyano-3-methylbutyl)amino)-1-oxo-3-phenylpropan-2-yl)-1-methyl-1H-pyrazole-5-carboxamide], for which the SI is recorded as 23.9. The same measure for `Cn1nc(C(C)(C)C)cc1C(=O)N[C@@H](Cc1ccccc1)C(=O)N[C@@H](C#N)Cc1ccccc1` [Compound 51, 3-(tert-Butyl)-N-((S)-1-(((R)-1-cyano-2-phenylethyl)amino)-1-oxo-3-phenylpropan-2-yl)-1-methyl-1H-pyrazole-5-carboxamide]: 4.9; for `CC(C)CC(C#N)NC(=O)[C@H](Cc1ccccc1)NC(=O)c1cc(C(C)(C)C)nn1C` (stereo in doubt) [Compound 53, 3-(tert-Butyl)-N-((S)-1-(((S)-1-cyano-3-methylbutyl)amino)-1-oxo-3-phenylpropan-2-yl)-1-methyl-1H-pyrazole-5-carboxamide]: 5.1; for `C[C@@H](OCc1ccccc1)[C@@H](C#N)NC(=O)[C@H](Cc1cccc(Cl)c1)NC(=O)c1cc(C(C)(C)C)nn1C` [Compound 60, N-((S)-1-(((1R,2R)-2-(Benzyloxy)-1-cyanopropyl)amino)-3-(3-chlorophenyl)-1-oxopropan-2-yl)-3-(tert-butyl)-1-methyl-1H-pyrazole-5-carboxamide]: 25.3. For `C[C@H](OCc1ccccc1)[C@H](C#N)NC(=O)[C@H](Cc1ccccc1)NC(=O)c1cc(C(C)(C)C)nn1C` [Compound 57, N-((S)-1-(((1S,2S)-2-(Benzyloxy)-1-cyanopropyl)amino)-1-oxo-3-phenylpropan-2-yl)-3-(tert-butyl)-1-methyl-1H-pyrazole-5-carboxamide], the SI was found to be 32.5. In the case of `Cn1nc(C(C)(C)C)cc1C(=O)N[C@@H](Cc1ccccc1)C(=O)N[C@H](C#N)Cc1ccccc1` [Compound 50, 3-(tert-Butyl)-N-((S)-1-(((S)-1-cyano-2-phenylethyl)amino)-1-oxo-3-phenylpropan-2-yl)-1-methyl-1H-pyrazole-5-carboxamide], the SI was 1.3. The result for `Cn1nc(C(C)(C)C)cc1C(=O)N[C@@H](Cc1ccccc1)C(=O)N[C@H](C#N)Cc1cccc(Cl)c1` [Compound 54, 3-(tert-Butyl)-N-((S)-1-(((S)-2-(3-chlorophenyl)-1-cyanoethyl)amino)-1-oxo-3-phenylpropan-2-yl)-1-methyl-1H-pyrazole-5-carboxamide] reads 2.8.
